This experiment addresses T1, endogenous endoglin (human (endogenous in HS5)) (UniProt P17813).
T1 sequence: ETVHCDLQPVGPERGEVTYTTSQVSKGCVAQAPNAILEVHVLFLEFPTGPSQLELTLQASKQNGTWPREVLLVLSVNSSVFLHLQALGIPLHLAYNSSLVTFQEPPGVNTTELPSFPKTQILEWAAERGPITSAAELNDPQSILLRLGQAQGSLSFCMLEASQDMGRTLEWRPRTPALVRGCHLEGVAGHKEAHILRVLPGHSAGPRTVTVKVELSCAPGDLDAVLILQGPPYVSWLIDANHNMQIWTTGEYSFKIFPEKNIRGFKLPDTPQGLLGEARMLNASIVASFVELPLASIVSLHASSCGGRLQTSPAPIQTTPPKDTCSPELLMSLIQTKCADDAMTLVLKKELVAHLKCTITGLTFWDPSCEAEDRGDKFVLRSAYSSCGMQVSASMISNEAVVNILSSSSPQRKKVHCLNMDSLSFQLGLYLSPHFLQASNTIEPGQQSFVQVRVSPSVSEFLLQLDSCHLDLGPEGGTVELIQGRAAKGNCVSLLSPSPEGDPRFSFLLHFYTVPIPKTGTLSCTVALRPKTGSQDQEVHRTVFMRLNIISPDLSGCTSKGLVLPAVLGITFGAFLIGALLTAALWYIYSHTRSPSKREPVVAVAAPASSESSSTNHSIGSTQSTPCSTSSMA
In words: proximity ligation; in situ Duolink PLA with syntenin and endoglin antibodies on fixed, permeabilised HS5 cells; endogenous proteins.

Chains of the proteins cited; added tags and fusions are not shown.
UniProt O00560: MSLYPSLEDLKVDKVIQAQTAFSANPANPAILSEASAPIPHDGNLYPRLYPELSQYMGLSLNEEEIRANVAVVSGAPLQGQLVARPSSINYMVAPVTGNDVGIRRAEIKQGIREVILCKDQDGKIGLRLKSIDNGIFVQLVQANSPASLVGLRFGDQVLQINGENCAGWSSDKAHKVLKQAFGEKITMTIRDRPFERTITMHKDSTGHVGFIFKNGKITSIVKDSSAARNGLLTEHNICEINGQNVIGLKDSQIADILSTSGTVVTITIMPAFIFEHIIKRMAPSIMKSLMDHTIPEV

These are yes or no findings as the source states them, for the method shown. Binding seen in cells or lysates may run through a third protein. Some entries that bind do so weakly or less than the wild type.

For the substance “endogenous syntenin (from UniProt O00560 1-298)”, the binding result is “binds”.

Values taken from publication PMC10630886, “Downregulation of stromal syntenin sustains AML development” (EMBO Molecular Medicine, 2023).
